Literature values, collected in patent US7351739B2, “Bioactive compounds and methods of uses thereof” (Wellgen, Inc., priority 2004, dated 2008).
For at least one compound, name, drawing or mass did not settle the structure.

Conditions: cited from earlier work

C=C1C(=O)[C@]23[C@H](O)[C@H]1CC[C@H]2[C@@]12CO[C@]3(O)[C@@H](O)[C@@H]1C(C)(C)CC[C@@H]2O [Rubescensin A, oridonin]
Anti-angiogenic activity (in words): anti-angiogenic
